The filed quantity is “Percent Effect” (%). How 0% and 100% were set is not recorded. Most values in the screen are low, and negative values occur. Compounds were drawn at random from those tested, without regard to their results. Two or more numbers in one place are separate tests of the same structure; such repeats can differ widely.

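Viability assay of Plasmodium falciparum sporozoites; the read-out is not stated. The concentration is filed as 10 mM, unlikely as a test dose, so the dose is not known. Higher reads as lower viability (inferred: compounds with an IC50 in retests scored well above the rest). Strong results were mostly tested again. About 34,000 compounds were tested under these conditions; 0.84% (about 280) showed 50% or more at least once.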

| structure | effect |
|---|---|
| `CCn1ccnc1CN1CCCN(C(=O)Cc2ccccc2C)CC1` | 2.296% |
| `Cc1cc(-c2ccc(C(=O)O)cc2)nc(C2CCN(C(C)C)CC2)n1` | 0.5888% |
| `O=C(NC1CCC1)C1=NOC2(CCN(Cc3ccccc3)C2)C1` (stereo not shown) | -15.82% |
| `COc1ccc(C(=O)NS(=O)(=O)c2ccc(C#N)cc2C(F)(F)F)cc1` | 3.84% |
| `O=C(c1cccnc1)N1CCOCC2(CCN(c3ncccn3)C2)C1` (stereo not shown) | -7.456% |
| `Cc1cccc(NC(=O)c2sccc2C)n1` | 7.103% |
| `[H][C@]12CC[C@]([H])(CN(C(=O)N(C)C)C1)N(C/C=C/c1ccc(F)cc1)C2` | -9.358% |
| `COc1ccc(-c2cc(C(=O)NCCn3ccnc3)n(C)n2)cc1` | 14.8% |
| `Cc1cccc(-n2cc(C(=O)N3CCCC(n4ccnc4)C3)nn2)c1` (stereo not shown) | -5.78% |
| `COc1ccc(CNC(=O)c2ccc(Cl)cc2F)cc1C(=O)O` | 5.644% |
| `c1cnc(NCCCOC2CCOCC2)nc1` | -13.43% |
| `COc1ccccc1OCC(=O)NS(=O)(=O)c1cc(F)ccc1F` | -10.94% |
| `O=C(Cn1cc(Cl)cn1)Nc1ccc2c(c1)OCCCO2` | -49.11% and -46.89% |
| `NC(=O)c1cc(C2CCCN(CCOCC3CC3)C2)n[nH]1` (stereo not shown) | -0.5536% |
| `CCOc1ncccc1NC(=O)c1sccc1C` | -6.495% |
| `Brc1ccccc1-c1nnc(CNCCn2cccn2)o1` | 3.188% |
| `[H][C@@]12CCN(CC3CCOCC3)[C@@]1([H])CCN2C(=O)c1ccco1` | -9.112% |
| `[H][C@@]12CCN(C(=O)c3cccn3C)CC[C@@]1([H])N(CCN(C)C)CCO2` | 3.813% |
| `CC(C)(NC(=O)Cc1ccccc1F)C(=O)O` | 13.22% |
| `O=C(O)c1cncc(Cc2ccccc2F)c1` | 3.122% |
| `CC(=O)N1CCN([C@@H]2CC[C@@H](N(C)C(=O)C3CCCCC3)[C@H]2O)CC1` | 2.176% |
| `CCCc1nc(CN2CCCC2c2cnn(C)c2)cs1` (stereo not shown) | 11.14% |
| `O=C(O)C(F)(F)F.O=C(O)C(F)(F)F.[H][C@@]12CN(Cc3cncn3C)C[C@]1([H])OCCN2Cc1c(C)noc1C` | -20.42% |
| `CNc1ncccc1CN1CCN(C)CC(C(N)=O)C1` (stereo not shown) | 5.695% |
| `O=C(Cn1cc(-c2ccccc2)ncc1=O)Nc1ccncc1` | 4.054% |
| `O=C(c1cc(-c2cccnc2)[nH]n1)N1CCCC(Cc2ccccn2)C1` (stereo not shown) | 24.24% |
| `Cc1nc(C(C)C)sc1C(=O)NCCn1nc2ccccn2c1=O` | -7.954% |
| `COc1ncccc1C(=O)N1CCCC1c1c(C)nn(C)c1Cl` (stereo not shown) | -1.148% |
| `Cc1nnc2n1CCN(C(=O)CN(C)Cc1ccccc1)C2` | 15.64% |
| `CCn1ccnc1CN1CCCN(C(=O)Cc2ccc(C)cc2)CC1` | -3.646% |
| `CN(C)C(=O)CN1CCN(Cc2coc(-c3cccc(F)c3)n2)CC1` | -10.5% and 11.52% and -28.54% |
| `CCCSCC(=O)N1CCC2(CC1)CC(c1ccccc1)CN(C)C2` (stereo not shown) | -8.49% |
| `CCOCCn1c(=O)[nH]c2cc(C(=O)N(C)Cc3nc(C)c[nH]3)ccc21` | 12.25% |
| `O=C(c1ccco1)N1Cc2cnn(CC3CC3)c2C(COCC2CC2)C1` (stereo not shown) | 13.52% |
| `CCn1ccnc1CN1CCCC1c1c(C)nn(C)c1OC` (stereo not shown) | -9.748% |
| `CC(=O)N1CCCC(c2ccnc(N(C)C)n2)C1` (stereo not shown) | 9.188% |
| `Cc1nccn1C1CCCN(C(=O)c2ccc(N3CCCC3)nn2)C1` (stereo not shown) | -6.438% |
| `Cn1ccnc1CN1CCN(CC(=O)NCC(F)(F)F)CC1` | -1.44% |
| `CN(CCNC(=O)N1CCN(Cc2ccon2)CC1)c1ccccc1` | -5.15% |
| `CC(=O)N1CCC2(CC1)CN(C(=O)c1cccc3[nH]ccc13)CCO2` | -10.12% |
| `COc1cccc(OC)c1OCCn1c(C)c(C)oc1=O` | -20.92% |
| `COCc1nccc(C2CCCN(Cc3ccccc3C#N)C2)n1` (stereo not shown) | -10.74% |
| `N#Cc1cccc(C(=O)NS(=O)(=O)c2ccc(C#N)c(Cl)c2)c1` | 15.99% |
| `Cc1ccc(C2CCCN2Cc2nc3c(cnn3C)c(=O)[nH]2)cc1C` (stereo not shown) | 8.141% |
| `CN(Cc1ccsc1)C(=O)c1ccc(S(=O)(=O)NC(C)(C)C)cc1` | 0.1705% |
| `[H][C@@]12CCCN1C[C@@H](CCSC)N(Cc1cnn(CCC)c1C)C2` | -2.824% |
| `Cn1c2c(c(=O)n1C)CN(C(=O)c1cnccn1)CCC2` | 2.532% |
| `COc1ccc(OCC(=O)NC(C)c2ccccc2)c(C(=O)O)c1` (stereo not shown) | -10.61% |
| `c1ccc(Cc2nnc(CN3CCCC3Cn3cccn3)o2)cc1` (stereo not shown) | 8.581% |
| `CC(Oc1ccccc1)C(=O)N1CCCN(Cc2cscn2)CC1` (stereo not shown) | 1.371% |
| `[H][C@@]12CCN(Cc3cc(C)on3)C[C@@]1([H])O[C@H](c1nc(C)cs1)C2` | 13.66% |
| `CC(Nc1c(F)cc(C#N)cc1F)c1cccc(S(N)(=O)=O)c1` (stereo not shown) | 2.206% |
| `O=C(c1ccccn1)N1CCc2ncnc(-c3ccncc3)c2CC1` | 5.373% |
| `COCc1noc(Cn2c(=O)[nH]c3ccccc32)n1` | -1.557% |
| `O=C(O)C(F)(F)F.[H][C@@]12COC[C@]1(CNC(=O)N1CCCC1)CN(Cc1nccs1)C2` | 7.675% |
| `Cc1nc2ccccn2c1CC(=O)N[C@@H]1CC[C@@H](N2CCCC2)[C@@H]1O` | -0.9675% |
| `CN(Cc1csc(-c2cnn(C)c2)n1)CC1CCN(CCO)CC1` | 4.866% |

From ChEMBL document CHEMBL3988442, “University of Dundee, Small-Polar-MMV Screening Library” (2021).